# Where “and” joins values, the source holds several entries; their conditions need not be identical. Identical values can stand only once. The whole screen tested about 78,000 compounds, of which about 1,800 (2.3%) were called active. The shares of active, inactive and inconclusive entries below differ from those in the screen. Cut-off read from the data, not from the text of the source: active = inhibition above about 30%; inconclusive = mostly about 10% to 28%; inactive = weaker than that.
# The chains behind the UniProt entries cited, without tags or fusion partners. Where a name states a change or a piece, a line headed by the entry shows the natural chain unless it says otherwise.
# UniProt Q01638: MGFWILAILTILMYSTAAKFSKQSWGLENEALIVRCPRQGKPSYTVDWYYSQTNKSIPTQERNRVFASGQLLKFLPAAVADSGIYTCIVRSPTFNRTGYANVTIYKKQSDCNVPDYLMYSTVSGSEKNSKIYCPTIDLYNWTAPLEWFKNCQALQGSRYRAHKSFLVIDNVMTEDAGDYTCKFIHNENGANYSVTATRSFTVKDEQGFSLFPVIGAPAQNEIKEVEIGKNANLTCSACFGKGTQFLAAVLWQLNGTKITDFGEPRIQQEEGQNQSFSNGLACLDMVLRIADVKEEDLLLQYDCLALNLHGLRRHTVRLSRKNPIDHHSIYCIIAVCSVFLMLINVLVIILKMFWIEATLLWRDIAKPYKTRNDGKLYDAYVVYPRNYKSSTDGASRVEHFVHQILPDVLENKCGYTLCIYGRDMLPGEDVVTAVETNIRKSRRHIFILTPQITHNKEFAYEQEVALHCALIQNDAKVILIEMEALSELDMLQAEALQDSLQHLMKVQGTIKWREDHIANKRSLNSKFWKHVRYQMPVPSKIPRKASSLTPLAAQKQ
# Molecular target: Interleukin-1 receptor-like 1 (Homo sapiens) (UniProt Q01638)
# Experiment: blocks human ST2 binding to IL-33, primary screen, biochemical, AlphaLISA (AID 1259354)
# Details: AlphaLISA ST2-Fc/biotin-IL-33 interaction, 1 h; at 17 µM, hits give high values
row,SMILES,inhibition
1,CCN(CC)Cc1cc(NC(C)=O)ccc1O,inconclusive: 16%
2,CCN1CCN(C(=O)CSc2cc(=O)n(C)c3ccccc23)CC1,inconclusive: 10%
3,Cc1cc(Cl)ccc1OCC(=O)Nc1cccc2nsnc12,inconclusive: 29%
4,Cc1cccc(CN2CCCN(CC(=O)NCCCc3ccccc3)S2(=O)=O)c1,inconclusive: 10%
5,CCOc1ccc(C2CC(=O)N3CN(c4ccc(Cl)cc4)CSC3=C2C#N)cc1 (stereo not drawn),inactive
6,CCCc1nc(CN(CC)C(=O)C2CCc3ccccc3C2)no1 (stereo not drawn),inconclusive: 11%
7,O[C@@H]1C[C@@H](c2nc(-c3ccncc3)no2)N(Cc2ccc(-c3ccccn3)cc2)C1,active: 33%
8,CCN(CC)C(=O)N1CCC2(CCN(Cc3cnc(COC)nc3)CC2)CC1,inactive
9,CN(C)c1ccc(CN2C[C@H](O)C[C@H]2c2nc(-c3ccccc3)no2)cc1,inactive
10,Cn1c2c(c(=O)[nH]c1=O)C(c1ccc(Br)cc1)C1=C(N2)c2ccccc2C1=O (stereo not drawn),inconclusive: 18%
11,COC[C@@H]1OC[C@@]2(C)C3CC[C@@H](O)[C@@H](CC(=O)N4CCC(C)CC4)[C@]3(C)CC[C@H]2O1 (stereo partly drawn),inconclusive: 28%
12,CCCSc1oc(-c2ccco2)nc1S(=O)(=O)c1ccc(Cl)cc1,inconclusive: 16%
13,N#Cc1ccccc1S(=O)(=O)N[C@H]1CO[C@H]2[C@@H]1OC[C@@H]2n1nnnc1Oc1ccc(-n2cncn2)cc1,inconclusive: 13%
14,Cc1ccc(-c2cc(N3CCN(S(=O)(=O)c4ccccc4C)CC3)ncn2)cc1,inactive
15,CC(=O)N1N=C(c2ccc(Br)cc2)CC1c1ccc(N(C)C)cc1 (stereo not drawn),inconclusive: 28% and inconclusive: 23%
16,CC(C)c1cc(C(=O)N2CCC(O)(CO)CC2)cs1,inconclusive: 14%
17,COc1ccc([N+](=O)[O-])cc1NC(=O)CCN1CCN(C)CC1,inconclusive: 12%
18,CCN1CCC(CN(CC)c2nc(CCN)nc3ccccc23)C1 (stereo not drawn),inconclusive: 10%
19,O=C(CSc1nc2c(c(=O)n1-c1ccccc1)SCC2)Nc1nccs1,inconclusive: 12%
20,COc1ccc(Nc2cc(C)nc(N3CCN(S(=O)(=O)c4ccc(C)c(C)c4)CC3)n2)cc1,inconclusive: 19%
21,CCOc1ccc(-n2c(SCC(=O)O)nc3sc4c(c3c2=O)CCCC4)cc1,inconclusive: 21%
22,COc1cc(NC(=O)N[C@H]2CO[C@H]3[C@@H]2OC[C@@H]3Nc2nccc(-c3ccc(-c4ccccc4)cc3)n2)cc(OC)c1,inconclusive: 14%
23,CCOc1ccc2cc(C(N)=O)c(=Nc3ccc(C)cc3)oc2c1,inconclusive: 19%
24,Fc1ccccc1-c1nnc([C@H]2CCN(Cc3ccc4c(c3)OCO4)C2)o1,inactive

row,SMILES,inhibition
1,Cn1ncnc1-c1ccnc(N2CCCC(F)(F)C2)n1,inconclusive: 19%
2,CCC(CC)n1nc(C)cc1NC(=O)CCn1nnnc1C,inconclusive: 16%
3,Cn1nc(-c2cc(N)nc3[nH]ccc23)nc1N1CCCCC1,inconclusive: 10%
4,CCC1c2cccn2CCN1C(=O)CC(=O)Nc1cc(C)cc(C)c1 (stereo not drawn),inconclusive: 13%
5,Cc1n[nH]c(C)c1S(=O)(=O)N1CCCC(C)C1 (stereo not drawn),inactive
6,Cc1nnsc1C(=O)N1CCC(n2nccc2NC(=O)CCCc2ccccc2)CC1,inconclusive: 10%
7,O=C1C(=O)N(CCO)C(c2ccccc2F)C1=C(O)c1ccc([N+](=O)[O-])cc1 (stereo not drawn),inconclusive: 10%
8,COc1cc(O[C@@H]2O[C@H](COC3OCC(O)C(O)C3O)[C@@H](O)[C@H](O)[C@H]2O)cc(OC)c1OC (stereo partly drawn),inactive
9,CN(Cc1ccccc1)c1ncccc1CNC(=O)c1ccc[nH]1,inconclusive: 10%
10,CCc1ccc(Cn2c(CNS(=O)(=O)c3ccc([N+](=O)[O-])cc3)nc3cccnc32)cc1,inconclusive: 14%
11,Nc1c(Br)cc(O)c2c1C(=O)c1ccccc1C2=O,active: 68%
12,CCC(C)/C=C(C)/C=C/C1=CC2=C(Cl)C(=O)C(C)(OC(C)=O)C(=O)C2=CN1CCCC(=O)O (stereo not drawn),inconclusive: 13%
13,COC(=O)C(C)Sc1nc2c([nH]c3ccccc32)c(=O)n1-c1ccc(F)cc1 (stereo not drawn),inconclusive: 11%
14,O=C1CC(c2ccccc2)CC2=C1C(c1cccc(Br)c1)Nc1ccccc1N2 (stereo not drawn),inactive
15,CN(C(=O)CC(c1ccccc1)c1ccc2c(c1)OCO2)C1CCOCC1 (stereo not drawn),inactive
16,Cc1cccc(Nc2ncnc3sc(C)cc23)c1,inconclusive: 13%
17,C#CCCC(=O)N(CCC)Cc1cccc(Cl)c1,inactive
18,O=C1c2ccccc2C(=O)c2c(NC(=O)c3cc4ccccc4oc3=O)cccc21,inconclusive: 16%
19,CC1(C)Cc2ccccc2-c2nnc(-c3ccccc3)n21,inactive
20,O=C(c1csc(S(=O)(=O)NC2CC2)c1)N1CCCC1,inconclusive: 17%
21,CC1=C(C)CC(C(=O)Nc2ccc(C(N)=O)cc2)C(C(=O)O)C1 (stereo not drawn),inactive
22,CCn1nc(C(=O)O)c2c1CCN(C(=O)C(c1cccnc1)N1CCCC1)C2 (stereo not drawn),inactive
23,Nc1ccc(-c2ccc(S(=O)(=O)c3ccc(-c4ccc(N)cc4)cc3)cc2)cc1,inconclusive: 10%
24,N#CC1=C(N)Oc2nc[nH]c(=O)c2C1c1ccccc1Cl (stereo not drawn),active: 94%

row,SMILES,inhibition
1,CCn1c2ccccc2c2cc(CN3CCCN(C)CC3)ccc21,inactive
2,CCN(CC)C(=O)c1cc2cc3ccc(Cl)cc3nc2o1,inconclusive: 11%
3,O=C(Nc1ccccc1NC(=O)c1cccnc1)c1cccnc1,inconclusive: 16%
4,Cc1cccc(C)c1N(CC(O)Cn1c2ccccc2c2ccccc21)S(C)(=O)=O (stereo not drawn),inconclusive: 12%
5,NC(=NCc1ccccc1)NC(=O)c1nc(Cl)c(N)nc1N,inconclusive: 16%
6,O=C(NCc1cccnc1)c1cc(I)ccc1Cl,inconclusive: 14%
7,COCC(=O)Nc1cnn(-c2cccc(C(=O)N3CCCC(COc4ccccc4F)C3)c2)c1 (stereo not drawn),inconclusive: 16%
8,O=C(Nc1ccc2c(c1)OCCO2)c1cc2cc(Br)ccc2oc1=O,inactive
9,COc1ccc(NC(=O)Cn2c(=O)n(-c3cc(OC)cc(OC)c3)c(=O)c3sccc32)cc1,inconclusive: 11%
10,Cc1ccc2c(c1)c1c3n2CCN(C=O)C3CCC1 (stereo not drawn),inconclusive: 25%
11,COc1ccccc1OCc1cc(C(=O)NC2CCNCC2)n[nH]1,inactive
12,COc1cccc(-n2cc(CNc3nc(N(C)C)nc4c3CCNC4)cn2)c1,inactive
13,O=C(NC1CCCCC1)c1ccccc1NS(=O)(=O)c1ccc2c(c1)OCCO2,inconclusive: 18%
14,Cc1ccccc1-n1c(N)c(C#N)c2nc3ccccc3nc21,active: 30%
15,Cc1[nH]cnc1-c1nccn1C(C)c1cnn(C)c1 (stereo not drawn),inconclusive: 12%
16,O=c1oc2ccccc2c(NC2CCCC2)c1[N+](=O)[O-],inactive
17,Clc1cccc(CN2CCc3ccccc3C2)c1Cl,inconclusive: 11%
18,CCOc1ccc(C2CC(=O)C3=C(C2)Nc2ccccc2NC3c2ccc(Cl)cc2)cc1OC (stereo not drawn),inconclusive: 22%
19,O=C(Nc1nc2ccccc2s1)c1cc([N+](=O)[O-])cc([N+](=O)[O-])c1,inconclusive: 19%
20,CC(C)NC(=O)N[C@H]1CCN2C(=O)c3ccc(Cl)cc3NC(=O)[C@H]12,inconclusive: 13%
21,O=C(c1cnc2n(c1=O)CCS2)N(Cc1ccccc1)c1ccccc1,inactive
22,O=C1NC(C(=O)N2Cc3cnc(-c4ccccc4)nc3C2)CO1 (stereo not drawn),inconclusive: 13%
23,COc1ccc(OCC(O)CN2CCC(CN3C(=O)c4cccc5cccc(c45)C3=O)CC2)cc1 (stereo not drawn),inconclusive: 12%
24,O=C(Nc1cccc(F)c1)c1c[nH]c(=O)n(-c2ccccc2)c1=O,inactive

row,SMILES,inhibition
1,Cc1cccc(Oc2ccc(C(=O)N3CC[C@H](CO)[C@H](O)C3)cc2)c1,inconclusive: 20%
2,O=C(CN1C(=O)C(=O)c2ccccc21)Nc1ccccc1Cl,inconclusive: 12%
3,C=CCSc1nnc2c(n1)OC(c1ccccn1)Nc1ccccc1-2 (stereo not drawn),inactive
4,Cc1ccnc(NC(=O)C(NC(=O)C2CCCCC2)C(C)C)c1 (stereo not drawn),inconclusive: 16%
5,Cc1noc(C)c1CC(=O)N1CCCC(C(=O)Nc2cccc(-c3ccc(F)cc3)c2)C1 (stereo not drawn),inconclusive: 12%
6,CC(=O)OC(CCCCCCCCCC(C)O)Cc1cc(O)cc(O)c1 (stereo not drawn),inactive
7,Cc1[nH]nc(-c2ccccc2)c1Br,inactive
8,O=C(Nc1cccc(Cl)c1)N1CCCCCC1,inconclusive: 12%
9,CCOC(=O)c1ccc(NS(=O)(=O)c2ccc3c(c2)CCC(=O)N3)cc1,inactive
10,CCn1c(CCNC(C)=O)nc2ccccc21,inactive
11,Fc1ccc(C(c2ccc(F)cc2)N2CCN(C/C=C/c3ccccc3)CC2)cc1,inconclusive: 22%
12,COC(=O)C(C)C1Sc2ccccc2N(Cc2ccccc2Cl)C1=O (stereo not drawn),inconclusive: 10%
13,NCC1Cc2cc(-c3ccc(C(=O)N4CCCCC4)o3)cc(F)c2O1 (stereo not drawn),inconclusive: 11%
14,COc1ccc(/C=C2/C(=O)N(c3ccccc3)N=C2C)cc1Br,inconclusive: 23%
15,CCOc1cccc(C2Nc3ccccc3NC3=C2C(=O)CC(c2ccc(Cl)cc2)C3)c1 (stereo not drawn),inconclusive: 19%
16,Cc1cc(C)cc(NC(=O)CSc2nc3c([nH]c4ccccc43)c(=O)n2C)c1,inconclusive: 10%
17,CCC(=O)Nc1ccc(C(=O)Nc2ccccc2OC)cc1,inactive
18,CC(C)n1c(-c2ccccc2)csc1=Nc1ccccc1,active: 73% and active: 70%
19,O=C(C1CC1)N1CCc2cc(Br)cc(S(=O)(=O)NCCc3ccccc3)c21,inconclusive: 19%
20,NN(Cc1ccccc1)c1ccccc1,active: 37%
21,O=C(CN1CCCN(Cc2ccccc2)S1(=O)=O)NCc1ccc(Cl)cc1,inconclusive: 21%

# From PubChem BioAssay AID1259354 (Paczesny and Yang Labs, IUPUI and University of Michigan, 2018)
